From PubChem BioAssay AID588499 (NMMLSC, 2011)
The campaign covered roughly 360,000 compounds. About 610 (0.17%) were called active. Inconclusive results, whose numbers are uncertain, are shown with a selection of clear calls. No stated cut-off is given here; in the data, active means inhibition above about 30%; inconclusive means no clear call, values can overlap the other calls; inactive means below that.

tested on: Botulinum neurotoxin type A light chain protease (Clostridium botulinum A str. ATCC 3502); experiment: blockers of BoNT/A LC substrate cleavage – biochemical, flow cytometry, MLPCN library, primary screen (AID 588499); conditions: multiplex microsphere protease substrate cleavage, at 10 µM, hits give high values; further: plate controls were buffer without enzyme for full effect and enzyme alone for no effect

| SMILES | inhibition |
| --- | --- |
| CCOC(=O)Nc1ccc(S(=O)(=O)Nc2nccc(C)n2)cc1 | inconclusive: 3.5% |
| CCN1C(=O)C(=Cc2cc(C)n(C3CC3)c2C)C(=O)N(CC)C1=S | active: 41% |
| Cn1c(N)c(C(=O)Nc2ccc3ccccc3c2)sc1=S | inconclusive: 3.9% |
| O=C(NCCCN1CCCC1=O)c1cccc(C(F)(F)F)c1 | inconclusive: 3.8% |
| CC(=O)NNS(=O)(=O)c1ccc(-c2cc(C(F)(F)F)n(C)n2)s1 | inconclusive: 23.6% |
| Nc1[nH]c(N=NC(=O)c2ccc(F)cc2)c2ccccc12 | inactive: 0.8% |
| O=C(O)c1cc(NCc2ccc(F)cc2)ccc1N1CCOCC1 | inactive: 1.1% |
| CCc1nc(OCCN(C)C)c2oc3ccccc3c2n1 | inconclusive: -5.5% |
| COc1ccc(N(CC(=O)Nc2cc(C)on2)S(=O)(=O)c2cc(C)ccc2C)cc1 | inconclusive: -7% |
| CC(=O)N=c1sccn1CC(=O)c1ccc([N+](=O)[O-])cc1 | inconclusive: 6.6% |
| O=C(Nc1ccccc1)N1CCn2c(nc3ccccc32)C1 | inconclusive: 7.3% |
| CCN(CC(=O)Nc1ccccc1C(=O)OC)S(=O)(=O)c1ccccc1 | inconclusive: -4.3% |
| C[C@@H]1CC2=C(C(=O)OC(C)(C)O2)[C@H](c2ccc(Cl)cc2)O1 | inactive: -0.5% |
| Cc1cc2cc(CNC(=O)CC(C)C)ccc2n1C | active: 30.9% |
| COC(=O)c1ccccc1NC(=O)N1c2ccccc2CC1C (stereo unspecified) | inconclusive: 4.3% |
| CCOCCn1c(N2CCCC2)nc2c1c(=O)n(C)c(=O)n2C | inactive: -7.3% |
| CC(=O)/C(N=Nc1nc2c([nH]1)c(=O)n(C)c(=O)n2C)=C(\C)O | inconclusive: 10.1% |
| CC(=O)c1sc(NCc2ccc(C)cc2)nc1C | inactive: 0.3% |
| C[C@@H]1CN([C@@H](C)CO)C(=O)CCCn2nncc2CO[C@@H]1CN(C)S(=O)(=O)c1ccc(Oc2ccccc2)nc1 | inactive: 0.2% |
| Cc1nn(CC(=O)N/N=C/c2cccs2)c(C)c1[N+](=O)[O-] | inconclusive: 4.8% |
| CCSc1nnc(-c2sc3nnc(-c4ccccc4)c(-c4ccccc4)c3c2N)o1 | active: 80.2% |
| Cc1ccc(C(=O)NN2C(=O)/C(=C/c3cn(C)c4ccccc34)SC2=S)cc1 | active: 42.7% |
| N#Cc1ccsc1NC(=O)CSc1ncn[nH]1 | inactive: 3.1% |

| SMILES | inhibition |
| --- | --- |
| O=C(Nc1ccc2c(c1)nc1n2CCN(C2CCCCC2)C1)c1ccco1 | inactive: 2.3% |
| COc1ccc(-n2c(SCC(=O)Nc3sc4c(c3C#N)CCCC4)nnc2-c2ccc(O)cc2)cc1 | inconclusive: 0.8% |
| CCOc1ccc(C)cc1S(=O)(=O)N1CCCCC1 | inconclusive: 2% |
| Nc1cc(Cl)nc(N/N=C/c2ccccc2[N+](=O)[O-])n1 | inactive: -0.1% |
| Cc1ccc(NC(=O)c2cc([N+](=O)[O-])ccc2NCc2cccnc2)cc1Cl | inconclusive: 7.7% |
| COCCCNC(=S)Nc1ccc(C)cc1 | inconclusive: -34.4% |
| Cn1nc(C(C)(C)C)c(NC(=O)c2sccc2Cl)c1C(C)(C)C | inconclusive: 2.3% |
| CCCCOc1ccc(C(=O)N2CCCC2)cc1 | inconclusive: -1.2% |
| Cc1ccccc1Cn1c(Cc2ccccc2)nc2ccccc21 | inconclusive: -4.3% |
| Cc1nnc(N(C(=O)c2cnccn2)c2ccccc2)s1 | inactive: -0.4% |
| COc1ccc(CCNC(=O)c2ccc3c(c2)OCO3)cc1 | active: 63.6% |
| Cc1cc2ccccc2n1CCNC(=O)c1ccccc1 | inconclusive: 175% |
| Cn1c(=O)c2cnc(-c3ccc(C(F)(F)F)cc3)nc2n(C)c1=O | inconclusive: 15.6% |
| COc1cc(/C=N/NC(=O)COc2ccccc2C)ccc1OC(=O)c1cccs1 | inconclusive: -0.5% |
| CC(C)[C@@H](C(=O)N[C@@H](Cc1ccccc1)C(=O)O)N1C(=O)N2CCc3c([nH]c4ccccc34)[C@@]2(C)C1=O | inactive: 0.4% |
| Clc1ccc(CSc2nnc(-c3ccncc3)o2)c(Cl)c1 | inconclusive: -8.3% |
| CN(c1ccccc1)S(=O)(=O)c1cccc(NC(=O)COC(=O)C2CCCCC2)c1 | inactive: 0% |
| c1ccc(-c2nnc3n2-c2ccccc2SC3)cc1 | inactive: -0.4% |
| Cc1cccc(N(CC(=O)NCc2ccccc2)C(=O)Cn2nnc(-c3ccc(C)o3)n2)c1 | inconclusive: 32.5% |
| O=C(CC(Cc1ccccc1)C(=O)O)NCCc1ccc2c(c1)OCO2 (stereo unspecified) | inconclusive: -35.9% |
| COc1ccc(Br)cc1S(=O)(=O)N1CCCc2ccccc21 | inconclusive: 8.5% |
| Nc1cccnc1S(=O)(=O)c1cccc(C(F)(F)F)c1 | inconclusive: 5.2% |
| CCOC(=O)c1cc(NC(=O)c2ccoc2C)cc(C(=O)OCC)c1 | inconclusive: 0% |

| SMILES | inhibition |
| --- | --- |
| CCN(CC)C(=O)C1=C(C)N(Cc2ccc(C(C)(C)C)cc2)C(=O)C(CC(=O)NCCN2CCOCC2)C1 (stereo unspecified) | inactive: -0.7% |
| O=C(c1cc(-c2ccco2)on1)N1CCN(C(c2ccccc2)c2ccccc2)CC1 | inactive: 4.2% |
| CCCCc1c(-c2ccccc2OC)ncn1Cc1ccc(-c2ccccc2)cc1 | inactive: -0.7% |
| CC(C)n1cc(/C=C2\NC(=O)N(c3cccc(Cl)c3)C2=O)c2ccccc21 | inconclusive: 1.8% |
| CNC(=O)c1csc(-c2ccccc2)n1 | inconclusive: -0.5% |
| C#CCOCCOCCOCCNc1nc(N2CCN(C(=O)CCCCCCCCCCNC(=O)Cn3cc(CCCCCN)nn3)CC2)nc(N2CCN(C(=O)CCCCCCCCCCNC(=O)[C@H]([C@@H](C)CC)n3cc(CCCCN=C(N)N)nn3)CC2)n1 | inactive: -0.1% |
| COc1ccc(Nc2nc(NCC3CCCO3)nc(N)c2[N+](=O)[O-])cc1 (stereo unspecified) | inconclusive: -3.2% |
| CCOC(=O)N1CCN(c2ccc(C(=O)c3cccc(F)c3)cc2)CC1 | inconclusive: 4.2% |
| O=C1CC2(CCN(C(=O)c3ccccc3F)CC2)Oc2ccccc21 | inconclusive: -2% |
| Nc1cccc2cc(S(=O)(=O)O)ccc12 | inactive: -0.1% |
| O=C(NCC1CCCO1)c1cccs1 (stereo unspecified) | inconclusive: -5.1% |
| CCCN1CCN(C(c2cc3cc(OCC)ccc3[nH]c2=O)c2nnnn2C2CCCCC2)CC1 (stereo unspecified) | inconclusive: 3.6% |
| O=C(Cc1ccc(Cl)cc1)c1c[nH]c(C(=O)NCc2cccnc2)c1 | inactive: -0.6% |
| COc1ccc(NC(=O)c2cc(C3CCCCN3C(=O)c3ccc4c(c3)CCO4)on2)c(C)c1 (stereo unspecified) | inactive: -0.8% |
| CCOC(=O)C1=C(COC(=O)CCOc2ccccc2C)NC(=O)NC1C (stereo unspecified) | inconclusive: -3.7% |
| S=c1[nH]nc(CSCc2ccc(Cl)cc2Cl)n1-c1ccccc1 | inconclusive: 2.4% |
| CN(Cc1ccc(OC(F)F)cc1)C(=O)c1ccc2nccnc2c1 | inconclusive: -6.1% |
| Cc1cc(-c2cccnc2)c(C#N)c(SCC#N)n1 | inconclusive: -1.8% |
| O=C(c1cc2ccccc2o1)N1CCOCC1 | inconclusive: -490% |
| O=[N+]([O-])c1ccc(Oc2ccc(S(=O)(=O)Nc3ccccc3)cc2)cc1 | inactive: -0.1% |
| COC(=O)C(NC(=O)C(C)Oc1ccccc1)C(C)C (stereo unspecified) | inconclusive: 2.4% |
| COc1cccc(CNC(=O)CCNC(=O)c2ccco2)c1 | inconclusive: 3.8% |
| COCC(=O)Nc1ccc(S(=O)(=O)NCCc2ccccc2)cc1 | inactive: -0.4% |

Structures listed so far that contain a tert-butyl group:

| SMILES | inhibition |
| --- | --- |
| Cn1nc(C(C)(C)C)c(NC(=O)c2sccc2Cl)c1C(C)(C)C | inconclusive: 2.3% |
| CCN(CC)C(=O)C1=C(C)N(Cc2ccc(C(C)(C)C)cc2)C(=O)C(CC(=O)NCCN2CCOCC2)C1 (stereo unspecified) | inactive: -0.7% |

(cont.)

| SMILES | inhibition |
| --- | --- |
| COc1ccc(S(=O)(=O)N(CCC(N)=O)Cc2ccco2)cc1OC | inconclusive: 9.4% |
| Cc1ccc(-n2nc(C)c3onc(C)c3c2=O)cc1 | inconclusive: -11.3% |
| COc1ccc(N2C(=O)CC(N3CCC(c4nc5ccccc5[nH]4)CC3)C2=O)cc1 (stereo unspecified) | inconclusive: 0.1% |
| N#CC(C#N)=c1ccc2c(c1)N1C(c3ccccc3)=CC(c3ccccc3)C3CCCCC31N=2 (stereo unspecified) | inconclusive: 19.2% |
| Cn1nnnc1SCC(=O)NCc1cccc(C(=O)O)c1 | inconclusive: 1% |
| CC1(C)Cc2cccc(C(=O)Nc3ccc(Cl)cc3)c2O1 | inconclusive: 12.5% |
| CC(=O)Nc1cc2nc(C)n(Cc3ccc([N+](=O)[O-])cc3)c2nc1C | inactive: 4.6% |
| S=C(Nc1ccccc1)Nc1ccc(OCc2ccccc2)cc1 | inconclusive: 6.8% |
| Cc1cc(C)cc(OCC(=O)Nc2ccc(N3CCCCC3)cc2)c1 | inconclusive: -25% |
| O=C(CN1CCCC1)Nc1cc(C(F)(F)F)cc(C(F)(F)F)c1 | inconclusive: -16.3% |
| CN1/C(=C\C(=O)Nc2ccc(Cl)cc2)C(C)(C)c2ccccc21 | inconclusive: 0.3% |
| Cc1cccc(NC(=O)CNC(=O)c2sc3ccccc3c2Cl)n1 | inconclusive: -1.7% |
| Cc1ccccc1C(=O)NCCc1nnc(SCC(=O)Nc2nc(-c3ccccc3)cs2)n1C | inconclusive: -2.8% |
| O=C(Nc1ccc(O)c(-c2nc3ccccc3o2)c1)C1(c2ccccc2)CCCC1 | inconclusive: 4.2% |
| O=c1c(-c2nnc(SCc3ccc(Cl)cc3Cl)o2)cccn1Cc1ccccc1 | inconclusive: 1.4% |
| O=C(COc1ccccc1)NC1CCN(Cc2ccccc2)CC1 | inconclusive: 4.6% |
| COc1ccc(NC(=O)CSc2nnc3n2CCCCC3)cc1 | inactive: 1% |
| COc1cccc(C2NC(=O)c3ccccc3O2)c1OC (stereo unspecified) | inconclusive: 7.7% |
| COc1ccccc1C(=O)C(O)c1ccccc1OC (stereo unspecified) | inconclusive: 0.2% |
| Cc1ccc2nc(-c3ccc(NS(=O)(=O)c4ccc(F)c(F)c4)cc3)sc2c1 | inactive: -0.1% |
| COc1ccc(CC(=O)Nc2ccc(-c3noc(-c4ccccc4OC)n3)cc2)cc1 | inconclusive: 0.6% |
| COc1ccc2nc(Nc3nc(C)c(CCC(C)C)c(=O)[nH]3)nc(C)c2c1 | inconclusive: 2.6% |

Exported comma-delimited: four of the compounds above.
SMILES,inhibition
COc1ccc(S(=O)(=O)N(CCC(N)=O)Cc2ccco2)cc1OC,inconclusive: 9.4%
Cc1ccc(-n2nc(C)c3onc(C)c3c2=O)cc1,inconclusive: -11.3%
COc1ccc(N2C(=O)CC(N3CCC(c4nc5ccccc5[nH]4)CC3)C2=O)cc1 (stereo unspecified),inconclusive: 0.1%
N#CC(C#N)=c1ccc2c(c1)N1C(c3ccccc3)=CC(c3ccccc3)C3CCCCC31N=2 (stereo unspecified),inconclusive: 19.2%
